# Experiment: Glycemia in streptozotocin-diabetic rats
# Assay type: in vivo, rat
SMILES,"effect on glycemia (diabetic Wistar rats, 1% phosphate eye drops for 7 days)","effect on glycemia (diabetic Brown-Norway and Wistar rats, eye drops 7 days)"
COc1cc(C)c(S(=O)(=O)N(C)CCOCC(=O)N(C)Cc2ccc(C3=NCCN3)cc2)c(C)c1 [compound n° 49 phosphate],without affecting,
COc1cc(C)c(S(=O)(=O)N(C)CCOCC(=O)N(C)Cc2ccc(C3=NCCN3)cc2)c(C)c1 [compound n° 49],,did not affect

# Source: US20130315903A1, “ARYLSULFONAMIDE DERIVATIVES FOR THE PREVENTION OR TREATMENT OF SPECIFIC OPHTHALMOLOGIC DISORDERS” (FOVEA PHARMACEUTICALS, priority 2010, published 2013)
